Measurements from “University of Dundee, Small-Polar-MMV Screening Library” (2021), ChEMBL document CHEMBL3988442.

The filed quantity is “Percent Effect” (%). How 0% and 100% were set is not recorded. Most values in the screen are low, and negative values occur. This is an unselected part of the compounds tested. Two or more numbers in one place are separate tests of the same structure; such repeats can differ widely.

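Viability assay of Plasmodium falciparum sporozoites; the read-out is not stated. The concentration is filed as 10 mM, unlikely as a test dose, so the dose is not known. Higher reads as lower viability (inferred: compounds with an IC50 in retests scored well above the rest). Strong results were mostly tested again. Of about 34,000 compounds tested this way, about 280 (0.84%) reached 50% or more in at least one test.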

structure,Percent Effect
COCCN1CCC(CN(CC2CCCO2)C(=O)COC)CC1 (configuration not stated),-9.406%
Cc1cc(CN2CCOC(CNc3cccnn3)C2)no1 (configuration not stated),5.11%
Cn1cnc(CN2Cc3nccn3CC2c2ccccc2)c1 (configuration not stated),6.84%
Cc1ccc(C)c2c(C)c(C(=O)NCC[S+](C)[O-])[nH]c12 (configuration not stated),3.645%
COC(=O)CNC(=O)CSCc1nc(O)c2c(C)c(C)sc2n1,0%
O=C(O)C(F)(F)F.[H][C@@]12CCN(CCOCc3ccccc3)[C@]1([H])CC[C@H](C(=O)NC1CC1)O2,-3.492%
CNC(=O)c1ccc(CNC(=O)c2ccc(Cl)cc2F)cc1,5.005%
Cc1nc(N2CCOCC2)sc1C(=O)NCC(C)(C)N1CCCCC1,3.314%
CNC(=O)CS(=O)(=O)Cc1coc(-c2ccc(OC)cc2)n1,12.82%
O=C(c1cc(Cl)c2c(c1)OCO2)N1CCN(c2ccccn2)CC1,-10.51%
c1ccc(-c2cc(CNCCCN3CCCCC3)c3nnnn3c2)cc1,7.834%
O=C(NCc1ccccc1CN1CCCCC1)Nc1nncs1,-4.114%
COc1c(C2CCCN2CC(=O)Nc2ccncc2)c(C)nn1C (configuration not stated),2.511%
O=C(O)C(F)(F)F.c1ccc(C[C@H]2CN(C3CCOCC3)CC[C@H]2OCC2CC2)cc1,3.764%
CS(=O)(=O)NC1CCN(C(=O)NCCNc2ccccn2)CC1,-10.28%
Cc1cccc(C(=O)N2CCCC(c3nccn3Cc3cscn3)C2)n1 (configuration not stated),-17.28%
CC(Cn1cccn1)NC(=O)Nc1ccc(N(C)C)nc1 (configuration not stated),3.359%
COc1ccc(OC)c(C2CCN(C(=O)CCc3n[nH]c(N)n3)C2)c1 (configuration not stated),-23.89%
Cc1ncnc2c1CCN(C(=O)N(C)C)CC2,22.77%
CN(Cc1cnc(N)nc1)C(=O)c1coc(COc2cccc(F)c2)n1,-5.322%
COc1cc(C(=O)N2CCCS2(=O)=O)cc(Cl)c1OC,-6.618%
Cn1cnnc1C1CCN(C(=O)CCCOCc2ccccc2)CC1,-29.62% and -20.32%
CCC1CN(C)c2ccccc2CN1CCn1cncn1 (configuration not stated),0%
Cc1noc2nc(C3CCN(CC4CCCCC4)CC3)cc(C(F)F)c12.Cl,2.532%
CN(CC1COc2ccccc2O1)C(=O)NCCCn1ccnc1 (configuration not stated),-12.7%
Cc1nc(C)n(CC2CCCN(Cc3nnc(C4CC4)o3)C2)n1 (configuration not stated),-1.716%
COCCC1(CO)CCCN(Cc2ccc(F)c(C)c2)C1 (configuration not stated),1.615%
O=C(NCCO)C1(CC2CC(c3ccc(F)cc3)=NO2)CCOCC1 (configuration not stated),5.77%
Cn1cc(C2CC(=O)NC23CCN(C(=O)NC2CC2)CC3)cn1 (configuration not stated),0.8432%
[H][C@@]12CNC(=O)[C@H](C)[C@]1([H])CN(Cc1ccccc1)C2,-8.762%
CC(C)c1nccn1CCCNC(=O)c1ccc(-c2cncnc2)nc1,-11.16%
CC1c2ncc(Cn3cncn3)n2CCN1C(=O)c1ccccn1 (configuration not stated),17.71%
Cc1cc(CN2CCCn3nc(CCC(=O)O)cc3C2)ccc1F,-7.632%
Cc1nn(C)c(Cl)c1C1CCCN1C(=O)c1ccnn1C (configuration not stated),6.515%
CCc1nc(CC(=O)N2CCn3c(nnc3C(F)(F)F)C2)cs1,-0.3298%
CCc1nc(C2CCCN2C(=O)c2ncoc2CC)no1 (configuration not stated),2.093%
CC(NCCc1nccn1Cc1ccccc1)c1cccs1 (configuration not stated),9.55%
c1cc(CCNc2ncc(-c3cnccn3)c(C3CC3)n2)ccn1,0.3836%
CCN1CCC(CNC(=O)NCc2cc(-c3ccc(C)cc3)no2)C1 (configuration not stated),21.09% and 25.21% and 31.16%
COc1ncccc1C(=O)NCC1Cc2ccccc2O1 (configuration not stated),-12.16%
CC(C)(C)OC(=O)NCCNC(=O)c1ccc(-c2ccco2)[nH]c1=O,2.254%
CC(C)CC(CNC(=O)NCc1cc[nH]n1)N1CCOCC1 (configuration not stated),19.65%
Cl.OC[C@H]1CC[C@]2(CC1)CN(Cc1ccsc1)Cc1ccccc1O2,12.39%
CNC(=O)C1CN(C(=O)c2cccs2)CCN(S(C)(=O)=O)C1 (configuration not stated),2.66%
O=C(CCn1ccc2cc(Br)ccc21)NCc1ccc(C(=O)O)cc1,3.495%
CCOCC1CN(S(=O)(=O)C2CC2)Cc2ncn(CC3CC3)c21 (configuration not stated),3.421%
c1ccc(NCc2cnc3n2CCN(C2CCOC2)CC3)nc1 (configuration not stated),2.735%
O=S(=O)(CCNCc1ccc2c(c1)CCO2)N1CCOCC1,-4.588%
CC(=O)N1CCCC2(CCN(C(=O)c3nn(C)c4ccccc34)CC2)C1,17.28%
Cc1ccc(CCC(=O)N2CCC(Nc3cccnn3)CC2)cc1,3.833%
CCCN(CCn1c(=O)oc2ccccc21)CC1CC1,9.465% and 2.456% and 4.293%
CS(=O)(=O)N1CCC(Cc2cnc(Br)cn2)C1 (configuration not stated),11.04%
CCOc1ccc(CC(CNC(=O)c2ccc(C)o2)C(N)=O)cc1 (configuration not stated),7.804%
CCc1cnc(CN(C(C)=O)C2CCN(CCc3ccccc3)C2)o1 (configuration not stated),18.47%
Cn1ccnc1C(=O)NCCS(=O)(=O)c1ccc(C(C)(C)C)cc1,-4.929%
O=C(O)c1ccc(=O)n(CC(c2ccc(F)cc2)N2CCCCCC2)c1 (configuration not stated),11.2%
COc1cccc(Nc2nc(C3CCNCC3)c3sc(C)c(C)n23)c1.Cl,77.36% and 36.71% and 52.33%
NC(=O)c1nc(COc2ccc3c(c2)OCO3)no1,1.535%
Cc1nc(CNC(=O)NC2CC(C)(C)OC2(C)C)sc1C (configuration not stated),-17.2%
Cc1cccc(N2CCN(CCCNC(=O)c3nccn3C)CC2)c1,2.931%
CCCS(=O)(=O)N1CCCN(CCCOC)CC1,1.471%
CCN(C(=O)Nc1cccnc1OC)C1CC1,2.617%
CNc1ccc(CC2CCCN(C(=O)c3cncnc3C)C2)nn1 (configuration not stated),-14.61%
Cc1csc(N2CCCN(C(=O)CCNc3ncccn3)CC2)n1,2.061%
O=C(O)C(F)(F)F.[H][C@@]12CCN(C3CCOCC3)C[C@@]1([H])[C@H](C(=O)NCc1ccco1)CCO2,0.8323%
CNS(=O)(=O)c1ccc(C(=O)N2CCCC(n3cccn3)C2)cc1 (configuration not stated),6.76%
CN(C)c1cc(C2CCCN(C(=O)c3noc4c3CCCC4)C2)ccn1 (configuration not stated),9.106%
CCn1ccnc1CN1CCN(CC(=O)NC2CCOCC2)CC1,-10.81% and 7.64% and -13.68%
CC(C)N1CC(c2ccnc(Nc3nccs3)n2)C1,9.047%
CCOc1ccc2nc(CN3CCC(CNC(C)=O)C3)ccc2c1 (configuration not stated),1.643% and -16.47% and -12.4%
COc1cccc(CC(=O)NC(C)c2nc3cccnc3n2C(C)C)c1 (configuration not stated),1.091%
CS(=O)(=O)N1CCCC(Cc2cncc(Br)c2)CC1 (configuration not stated),10.33%
O=C(O)C(F)(F)F.O=C(O)C(F)(F)F.[H][C@@]12C[C@@H](Oc3ccc(C)cc3)CN1CCN(C(=O)c1cccnc1)C2,-14.73%
CCCC(NC(=O)c1cnccn1)c1nnc2ccccn12 (configuration not stated),8.768%
c1ncc2c(n1)CN(Cc1nc(-c3ccoc3)no1)CC2,1.567%
COCC1CC2(CCN(c3cc(OC)ncn3)CC2)CN1C(C)C.O=C(O)C(F)(F)F (configuration not stated),-8.439%
Nc1cc(CCC2CN(Cc3ccc(C(=O)O)cc3)CCO2)ccn1 (configuration not stated),7.067%
Cc1ncc(-c2ccnc(N3CC[C@H](O)C3)n2)c(-c2cccnc2)n1,8.552%
Cc1ccc(-c2nc(CN3CCc4c(ncn4C)C3)cs2)o1,-16.99% and 24.64% and -11.24%
[H][C@@]12CCN(Cc3ccncc3)[C@]1([H])CC[C@H](COCC1CCOCC1)O2,4.381%
Cc1cnc(CN2CCOC(Cn3nc(C)nc3C)C2)cn1 (configuration not stated),12.75%
O=C(O)C(F)(F)F.O=C1N(CC2CCCC2)CCC12CCN(c1ncc(F)cn1)CC2,0.722%
COc1ccnc(N2CCN(C(=O)Cc3ccc(C)s3)CC2)n1,-2.543%
Fc1ccc(CN2CCC(F)(F)C3(CCN(c4cnccn4)C3)C2)cc1.O=C(O)C(F)(F)F.O=C(O)C(F)(F)F (configuration not stated),2.417%
O=C(NCCn1ccnc1)N1CCCN(Cc2cccs2)CC1,4.125%
Cc1cccnc1CNC(=O)NC(C)Cc1c(C)nn(C)c1C (configuration not stated),4.72%
CCn1ccc(C(=O)N2CCCC2(C)c2nc(C)cc(N(C)C)n2)n1 (configuration not stated),9.117%
O=C(NCCCn1nc2ccccn2c1=O)Nc1ccccc1,5.988%
O=C(CN1CCCC1Cn1cncn1)NCCOc1ccc(F)cc1 (configuration not stated),-2.59%
Cc1ncccc1CNCC1COC2(CCCCC2)O1 (configuration not stated),-13.14%
CS(=O)(=O)N1CCC(c2cncc(Cl)n2)CC1,13.63%
N#Cc1cccc(S(=O)(=O)NC(=O)COc2ccc3c(c2)CCC3)c1,6.924%

Some entries from above, unchanged:

COc1ccnc(N2CCN(C(=O)Cc3ccc(C)s3)CC2)n1 gave -2.543%.
O=C(CN1CCCC1Cn1cncn1)NCCOc1ccc(F)cc1 (configuration not stated) gave -2.59%.
CC1c2ncc(Cn3cncn3)n2CCN1C(=O)c1ccccn1 (configuration not stated) gave 17.71%.
CS(=O)(=O)N1CCC(Cc2cnc(Br)cn2)C1 (configuration not stated) gave 11.04%.
COc1ccc(OC)c(C2CCN(C(=O)CCc3n[nH]c(N)n3)C2)c1 (configuration not stated) gave -23.89%.
COc1cccc(CC(=O)NC(C)c2nc3cccnc3n2C(C)C)c1 (configuration not stated) gave 1.091%.
Cc1csc(N2CCCN(C(=O)CCNc3ncccn3)CC2)n1 gave 2.061%.
O=C(c1cc(Cl)c2c(c1)OCO2)N1CCN(c2ccccn2)CC1 gave -10.51%.